In the assay the target is human TREM2 (Homo sapiens, UniProt Q9NZC2). Briefly: TREM2 agonist potency by cellular phosphorylation of Syk (AlphaLisa) in HEK293T-hTREM2 cells. In general terms: Bead proximity is the source of the signal in Alpha formats.

Chains of the proteins cited; added tags and fusions are not shown. Residues count along the entry.
UniProt Q9NZC2, 19-230 limits assumed: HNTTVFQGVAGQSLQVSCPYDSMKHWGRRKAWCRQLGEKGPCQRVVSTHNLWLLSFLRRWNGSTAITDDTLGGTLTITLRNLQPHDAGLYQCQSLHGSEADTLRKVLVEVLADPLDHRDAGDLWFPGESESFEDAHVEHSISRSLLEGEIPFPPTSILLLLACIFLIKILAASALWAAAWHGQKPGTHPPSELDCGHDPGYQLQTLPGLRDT
UniProt O43914, 22-113 partner limits assumed: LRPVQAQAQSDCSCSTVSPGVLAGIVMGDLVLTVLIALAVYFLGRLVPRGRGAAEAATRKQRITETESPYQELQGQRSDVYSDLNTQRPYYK

Where two headings read alike, the source gives them in different places. Structures were worked out from names or drawings and are uncertain. A value given as a limit tells only on which side of the number the result lay.

A word on the EC50: it is the concentration giving half of the maximal effect. On to `Cc1nc2nc([C@H]3CCO[C@@H](c4cnn(C5CC5)c4)C3)nc(-c3ccc(OC(F)F)cc3F)c2nc1C`, for which the half-maximal effective concentration (EC50) (read-out: hTREM2 EC50, HEK293 cells expressing human TREM2 and DAP12, Table D-2) lay within 50 to 500 nM.
`Cc1ccc2c(-c3ccc(Cl)cc3F)nc([C@H]3C[C@@H](C)O[C@@H](c4cnn(C5CC5)c4)C3)nc2n1`: the EC50 (read-out: hTREM2 EC50, HEK293 cells expressing human TREM2 and DAP12, Table D) is less than 50 nM.

The values are drawn from patent US20240309003A1, “HETEROCYCLIC COMPOUNDS AS TRIGGERING RECEPTOR EXPRESSED ON MYELOID CELLS 2 AGONISTS AND METHODS OF USE” (Vigil Neuroscience, Inc., priority 2021, published 2024).
